Source: the supplement of paper PMC4683952
Some of the results follow. Rule as the data show it: active = 2 or more and inactive = the rest. Most values lie within the scatter of the assay; repeated measurements hardly agree.

The compounds below were run on Lgr5 (MarsCy1-Lgr5-EGFP, U2OS) (assay: cell-surface Lgr5 expression (SCi1 fluorescence, background-subtracted) relative to WT DMSO (fold of DMSO control); higher = more Lgr5 at the plasma membrane). Conditions: U2OS MarsCy1-Lgr5-EGFP stable; treatment time: overnight; library: ActiProbe-5K (TimTec); 25 µM.

Structure (SMILES) | cell-surface Lgr5 expression
Sc1nnc(-c2ccccc2)n1/N=C\C=C/c1ccccc1 | inactive: 1.08
CS(=O)(=O)c1ccc(S(C)(=O)=O)s1 | inactive: 1.2
CC1CCC2(CC1)C(C#N)=C(S)NC(=O)C2C#N (stereo unspecified) | inactive: 1.16
COc1cc(-c2nc3sc(-c4ccc(OC5CCCC5)c(OC)c4)nc3s2)ccc1OC1CCCC1 | inactive: 1.37
Oc1ccc2c(c1)c1c3n2CCNC3CCC1 (stereo unspecified) | inactive: 1.23
COc1ccc(S(=O)(=O)Nc2ccc3c(c2)OCO3)cc1Br | inactive: 0.82
CCOC(=O)c1c(NC(=O)CSC2=NCCS2)sc2c1CCC2 | inactive: 1.19
c1(nc(N)sc1)/C=C(\Cl)Cl | inactive: 0.864
COc1cc(-c2nnc(SC)n2-c2ccc3c(c2)OCO3)cc(OC)c1OC | inactive: 1.67
C(=C/N1CCOCC1)(/C#N)C#N | inactive: 1.17
c1ccc(cc1)C(c1ccccc1)N1CCN(CC1)\N=C1/c2c(cccc2)c2c1cccc2 | inactive: 1.17
COCc1nnn(-c2nonc2N)c1C(=O)N/N=C/C1CC=CCC1 (stereo unspecified) | inactive: 0.96
O=C1CCCN1c1ccc(S(=O)(=O)[O-])cc1 | inactive: 1.1
COC(=O)c1c(C(=O)OC)c2n(c1C)[C@@H](c1cccs1)SC2 | inactive: 0.923
Cc1ccc2c(n1)sc1c(O)cc(O)nc12 | inactive: 1.16
Oc1nonc1N1CCOCC1 | inactive: 1.48
O=C1CCCCC1C1(O)C(=O)Nc2ccc(Br)cc21 (stereo unspecified) | inactive: 1.27
CSc1nnnn1-c1ccc(F)cc1 | inactive: 0.906
O=S(=O)(NCC1CCCO1)c1ccc(Br)cc1 (stereo unspecified) | inactive: 1.33
Cn1c(S)nnc1C12CC3CC(CC(C3)C1)C2 | inactive: 1.27
CC(=O)CSC(=S)N(CCN(Cc1cccs1)C(=S)SCC(C)=O)Cc1cccs1 | inactive: 1.28
O=C1CCCCCCCCCCCC(O)CCO1 (stereo unspecified) | inactive: 1.03
C[n+]1c2cc(N)ccc2cc2ccc(N)cc21.Cl.[Cl-] | inactive: 0.219

Structure (SMILES) | cell-surface Lgr5 expression
N=C1NC(=O)/C(=C2/C(=O)Nc3ccccc32)S1 | inactive: 0.731
O=C1CCCN1C(=O)CCC(=O)N1CCCC1=O | inactive: 0.814
CN(C)C(=O)CSc1nnc(-c2ccco2)o1 | inactive: 1.95
O=S(=O)(Nc1ccc(Br)cc1)c1ccc(F)cc1 | inactive: 1.25
Cc1nn(Cn2cc(Cl)cn2)c(C)c1N | inactive: 1.21
Cc1nc2nc(S(=O)(=O)N3CCCCC3)nn2c(C)c1C | inactive: 1.4
CCCC(C)C(=O)NCC1CCCO1 (stereo unspecified) | inactive: 1.18
Nc1nonc1-c1noc(-c2sc3ccccc3c2Cl)n1 | inactive: 1.22
N=C(N)SCc1csc2c1CCCC2 | inactive: 1.17
O=[N+]([O-])c1cc(C(F)(F)F)ccc1F | inactive: 1.31
COc1cc2nc(SCc3ccon3)[nH]c2cc1OC | inactive: 1.15
COC(=O)C1=C(OC)C(=O)OC12C=CC(=O)C=C2 | inactive: 0.434
CNc1ccc(OC(F)(F)F)cc1 | inactive: 1.1
COCc1nnc(NC(=O)C23CC4CC(CC(C4)C2)C3)s1 | inactive: 1.17
CS(=O)(=O)N(Cc1ccon1)c1ccc(F)cc1 | inactive: 1.18
Cc1nc2[nH]cc(C(=O)O)c(=O)n2n1 | inactive: 1.28
Cn1cccc1CC(=O)N/N=C/C=C/c1ccco1 | inactive: 1.61
O=C(O)CCc1cc(Cl)no1 | inactive: 1.13
S=c1nc2[nH]c3ccccc3c2n[nH]1 | inactive: 1.34
Oc1ccc(/C=N/c2nccs2)c(O)c1 | inactive: 1.09
CS(=O)(=O)N1CCCc2cc(S(=O)(=O)N3CCCC3)ccc21 | inactive: 1.12
CCn1cc(CNS(=O)(=O)c2cnn(CC)c2C)cn1 | inactive: 1.26
C[N+](C)(CCC#N)Cc1cccc2ccccc12.[Cl-] | inactive: 1.79

Taken from above:
O=C1CCCN1c1ccc(S(=O)(=O)[O-])cc1 – cell-surface Lgr5 expression: inactive: 1.1
CCOC(=O)c1c(NC(=O)CSC2=NCCS2)sc2c1CCC2 – cell-surface Lgr5 expression: inactive: 1.19
S=c1nc2[nH]c3ccccc3c2n[nH]1 – cell-surface Lgr5 expression: inactive: 1.34

Following part:

Structure (SMILES) | cell-surface Lgr5 expression
NC(=O)N/N=C\c1ccc(N)o1 | inactive: 1.12
Cc1nc2n(n1)C=COc1ccccc1-2 | inactive: 1.17
[O-][n+]1onc(C(c2ccccc2)c2ccccc2)c1C(c1ccccc1)c1ccccc1 | inactive: 0.888
O=[N+]([O-])c1cnn(C2=CNc3ccccc3N=C2)c1 | inactive: 1.33
O=[N+]([O-])c1ccc(Sc2ccsc2)c([N+](=O)[O-])c1 | inactive: 1.45
S=C(Nc1cnn(COc2ccc(Br)cc2)c1)NC1CC1 | inactive: 1.41
OC(CN1c2ccccc2Sc2ccccc21)Cn1cnc(-c2ccccc2)c1-c1ccccc1 (stereo unspecified) | inactive: 0.848
CC1CCCCN1C(=O)N1CCOCC1 (stereo unspecified) | inactive: 1.02
N#Cc1c2c(c(=O)n3c1[nH]c1ccccc13)CCC2 | inactive: 1.31
CC(=O)c1nnn(-c2nc(N3CCCC3)nc(N3CCCC3)n2)c1C | inactive: 1
CCCCc1c(C)nc(N/N=C(\C)CC)nc1O | inactive: 1.22
COC(=O)/C(C#N)=C\Nc1ccsn1 | inactive: 1.04
O=[N+]([O-])c1ccccc1NC1OC(CO)C(O)C1O (stereo unspecified) | inactive: 1.08
N#CCCSc1nc2ccccc2s1 | inactive: 1.42
O=[N+]([O-])c1ccc(N2CCOCC2)cc1N1CCOCC1 | inactive: 1.08
OCC1OC(Nc2ccccc2)CC1O (stereo unspecified) | inactive: 1.07
Brc1ccc2ncnc(N3CCOCC3)c2c1 | inactive: 0.402
Cn1nnnc1SC1=CS(=O)(=O)c2ccccc21 | inactive: 0.717
COc1cc(/C=N/n2nnnc2N)cc(Cl)c1OC | inactive: 1.42
CCN1/C(=C2\SC(=S)N(C)C2=O)Sc2ccc(Cl)cc21 | inactive: 1.24
Cc1ccc(C(O)c2nccn2C)o1 (stereo unspecified) | inactive: 1.13
Cc1ccc2c(c1)-c1c(ssc1=S)C(C)(C)N2 | inactive: 1.25
CN(C)CCCNS(=O)(=O)c1ccc(F)cc1 | inactive: 0.977

Structure (SMILES) | cell-surface Lgr5 expression
O=c1c2c3c(sc2nc2n1CCCC2)CCCCC3 | inactive: 1.21
O=C(NC1CCS(=O)(=O)C1)C(=O)NC1CCS(=O)(=O)C1 (stereo unspecified) | inactive: 1.11
Cn1ccnc1/C=N\Nc1cc(Cl)ccc1Cl | inactive: 1.23
CC1=CC(=O)C2(CCCCC2)NC1 | inactive: 1.19
O=S(=O)(Nc1ccc(F)c(F)c1)c1cccs1 | inactive: 1.21
CNC(=O)c1c(N)sc2c1CCCCC2 | inactive: 1.25
CSC1=NC(C)(C)CC12C=CC(=O)c1ccccc12 (stereo unspecified) | inactive: 1.02
CNCc1cc2ccccc2s1.Cl | inactive: 1.26
CCOC(=O)CSc1nsc(SCC(=O)OCC)c1C#N | inactive: 1.14
c1ccc2c(SCc3ccc4nsnc4c3)ncnc2c1 | inactive: 1.14
NC(=S)N/N=C\c1c[nH]c2ccccc12 | inactive: 1.24
O=c1c(O)c(-c2ccc(O)cc2O)oc2ccc(O)cc12 | inactive: 1.13
N/C(=N/OCc1cc2c(cc1Cl)OCO2)c1nonc1N | inactive: 1.01
COCCCN1C(=O)/C(=C/c2cccs2)SC1=S | inactive: 1.13
C1(=C2\c3c(cccc3)C(C2)=O)/C(c2ccccc2C1=O)=O | inactive: 1.1
O=C(O)C12CC3CC(C1)CC([N+](=O)[O-])(C3)C2 | inactive: 1.39
Nc1ccccc1-n1cnc2ccccc21 | inactive: 1.12
O=c1c2c(nc3[nH]c4ccccc4n13)CCCC2 | inactive: 0.971
c1ccc(Sc2ncnc3sc4c(c23)CCCC4)cc1 | inactive: 1.14
C=CCn1c2ccccc2c2nnc(SCc3ccc4nonc4c3)nc21 | active: 2.34
CC(/C=N/NC(N)=S)=C\c1ccc2c(c1)OCO2 | inactive: 1.15
CN1CCc2c(sc(N)c2C(N)=O)C1 | inactive: 1.32
Nc1nc(=O)c2[nH]c(=S)n(C3OC(CO)C(O)C3O)c2[nH]1 (stereo unspecified) | inactive: 1.02

Structure (SMILES) | cell-surface Lgr5 expression
COc1ccnc2cc(Cl)ccc12 | inactive: 0.999
CC12C=CC(=O)C=C1CCC1[C@@H]2C(O)CC2(C)[C@@H](C(=O)CO)CC[C@@H]12 (stereo partly specified) | inactive: 1.44
Fc1ccc(NC(=S)N2CCN(C(=S)Nc3ccc(F)cc3)CC2)cc1 | inactive: 1.16
CNC(=S)NNC(=O)c1ccco1 | inactive: 1.21
C(#Cc1ccc2sc3ccccc3c2c1)c1ccccc1 | inactive: 1.7
Nn1c(=S)[nH]c2ccccc2c1=O | inactive: 1.24
Cn1ncc(Cl)c1C(=O)NCCn1cc(Br)cn1 | inactive: 1.25
Cc1[nH]nc2c1C(c1cc(Br)cs1)C(C#N)=C(N)O2 (stereo unspecified) | active: 2.11
NC(=O)c1csc2c1CCCC2 | inactive: 1.08
CCOC(=O)Cc1nnc(-c2nnc(CC(=O)OCC)o2)o1 | inactive: 1.11
O=C1NC(=S)S\C1=C/C=C\C=C\Nc1ccccc1 | inactive: 1.37
C(/c1cc(Br)c(cc1)OC)(c1cc(Br)c(cc1)OC)=C\Cl | inactive: 1.47
c1cn2c3c(n1)CCCc3c1cc(C3CCCCC3)ccc12 | inactive: 1.16
C1=CC2CC1CC21COC(c2ccc(N3CCOCC3)cc2)OC1 (stereo unspecified) | inactive: 1.31
CSc1nnnn1-c1ccccc1 | inactive: 1.3
CCOC(=O)Cc1nnn(CC(=O)OCC)n1 | inactive: 1.07
O=C(N/N=C/c1ccco1)c1cccs1 | inactive: 1.16
CCOC(=O)NC(=S)Nc1nncs1 | inactive: 0.857
COC(=O)Cn1[nH]c(=O)ccc1=O | inactive: 1.32

An excerpt taken from the entries so far, for reference:
Structure (SMILES) | cell-surface Lgr5 expression
Cn1ncc(Cl)c1C(=O)NCCn1cc(Br)cn1 | inactive: 1.25
Cc1[nH]nc2c1C(c1cc(Br)cs1)C(C#N)=C(N)O2 (stereo unspecified) | active: 2.11
